The list shows a part of the results.
Compound: C#Cc1cccc(Nc2ncnc3cc(OCCOC)c(OCCOC)cc23)c1 [erlotinib]
Test: log2 fold change, soluble protein after heating vs DMSO (PISA); higher = thermal stabilisation; K562 lysate, 10 uM; active = over 0.2 and 3.5 SD of the protein, either way, in both replicates (recomputed)
In short: (§1)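 Values give the log-two fold change in thermal stability against solvent controls, from duplicates. Crude K562 extract at 1 mg/mL protein, made by dounce homogenisation in PBS pH 7.4 with 1 mM MgCl2, was treated with 10 μM compound for 30 min. After 3 min heating across 48°C-58°C, aliquots were pooled, adjusted to 0.5% NP-40 at 4°C and centrifuged at 21,000xg for 90 min. The supernatant was measured by TMTpro 16plex LC-MS/MS with channel sums equalised.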

Amino acid sequences for entries named in this document (tags omitted). A change or cut given only in a name is not applied to a line headed by its entry.
UniProt P47900: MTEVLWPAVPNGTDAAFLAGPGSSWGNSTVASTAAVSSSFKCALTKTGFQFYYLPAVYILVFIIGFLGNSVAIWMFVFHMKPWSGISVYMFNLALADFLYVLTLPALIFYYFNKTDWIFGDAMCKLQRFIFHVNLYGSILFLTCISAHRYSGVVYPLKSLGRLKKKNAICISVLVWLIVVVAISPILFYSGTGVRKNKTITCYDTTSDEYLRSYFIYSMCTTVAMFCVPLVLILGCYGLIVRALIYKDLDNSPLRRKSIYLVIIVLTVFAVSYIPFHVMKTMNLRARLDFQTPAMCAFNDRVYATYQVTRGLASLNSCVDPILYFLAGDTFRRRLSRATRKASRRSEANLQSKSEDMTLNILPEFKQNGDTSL
UniProt Q9Y6K5: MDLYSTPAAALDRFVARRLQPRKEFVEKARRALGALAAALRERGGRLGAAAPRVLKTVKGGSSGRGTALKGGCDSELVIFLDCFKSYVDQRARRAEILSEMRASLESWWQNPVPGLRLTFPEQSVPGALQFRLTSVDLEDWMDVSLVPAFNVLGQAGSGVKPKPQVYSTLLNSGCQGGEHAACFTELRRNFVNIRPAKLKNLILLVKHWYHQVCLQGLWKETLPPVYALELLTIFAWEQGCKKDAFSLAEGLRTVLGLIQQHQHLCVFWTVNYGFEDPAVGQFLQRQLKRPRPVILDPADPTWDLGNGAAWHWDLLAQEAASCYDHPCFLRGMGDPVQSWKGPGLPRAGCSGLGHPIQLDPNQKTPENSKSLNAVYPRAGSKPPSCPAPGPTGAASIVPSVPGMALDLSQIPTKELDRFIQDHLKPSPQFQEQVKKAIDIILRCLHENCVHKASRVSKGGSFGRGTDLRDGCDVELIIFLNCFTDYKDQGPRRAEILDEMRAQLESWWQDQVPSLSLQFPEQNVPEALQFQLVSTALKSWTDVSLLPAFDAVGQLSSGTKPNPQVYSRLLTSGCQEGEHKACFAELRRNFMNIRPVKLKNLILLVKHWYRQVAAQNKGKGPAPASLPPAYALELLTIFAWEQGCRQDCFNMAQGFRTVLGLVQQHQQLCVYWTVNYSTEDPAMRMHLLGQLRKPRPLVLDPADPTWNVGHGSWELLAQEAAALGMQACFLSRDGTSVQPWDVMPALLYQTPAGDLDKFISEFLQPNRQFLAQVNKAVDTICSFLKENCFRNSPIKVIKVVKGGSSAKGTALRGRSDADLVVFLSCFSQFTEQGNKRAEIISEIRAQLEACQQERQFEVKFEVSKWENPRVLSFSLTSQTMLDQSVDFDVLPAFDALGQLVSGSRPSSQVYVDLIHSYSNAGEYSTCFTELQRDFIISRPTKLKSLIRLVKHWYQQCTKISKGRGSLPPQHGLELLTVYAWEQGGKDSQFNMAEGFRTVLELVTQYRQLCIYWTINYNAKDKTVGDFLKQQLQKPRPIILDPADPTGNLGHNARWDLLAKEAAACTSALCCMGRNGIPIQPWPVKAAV
UniProt Q86WK9: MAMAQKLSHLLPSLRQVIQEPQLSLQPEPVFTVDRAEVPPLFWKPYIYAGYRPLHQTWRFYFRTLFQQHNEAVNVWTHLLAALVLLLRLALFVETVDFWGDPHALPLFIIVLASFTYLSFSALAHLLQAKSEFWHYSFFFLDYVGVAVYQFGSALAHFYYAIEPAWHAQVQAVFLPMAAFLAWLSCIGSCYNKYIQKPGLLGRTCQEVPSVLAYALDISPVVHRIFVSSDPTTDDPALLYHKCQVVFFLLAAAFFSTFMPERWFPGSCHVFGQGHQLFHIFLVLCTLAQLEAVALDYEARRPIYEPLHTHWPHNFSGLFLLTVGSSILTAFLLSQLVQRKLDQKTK
UniProt O15527, whole entry, looked up: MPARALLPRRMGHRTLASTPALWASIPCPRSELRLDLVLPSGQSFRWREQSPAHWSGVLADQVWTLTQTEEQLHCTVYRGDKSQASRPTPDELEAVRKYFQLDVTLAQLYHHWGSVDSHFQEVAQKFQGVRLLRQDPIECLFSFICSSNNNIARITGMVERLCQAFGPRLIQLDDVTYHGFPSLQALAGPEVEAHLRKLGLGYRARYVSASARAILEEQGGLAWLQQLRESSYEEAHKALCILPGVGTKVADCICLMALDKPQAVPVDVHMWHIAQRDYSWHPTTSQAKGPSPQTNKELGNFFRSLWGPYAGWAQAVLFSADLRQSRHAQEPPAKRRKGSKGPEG
UniProt O60829: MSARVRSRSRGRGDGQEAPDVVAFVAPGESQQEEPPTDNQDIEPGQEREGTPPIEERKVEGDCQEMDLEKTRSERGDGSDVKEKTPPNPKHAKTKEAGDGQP
UniProt Q96D31, whole entry, looked up: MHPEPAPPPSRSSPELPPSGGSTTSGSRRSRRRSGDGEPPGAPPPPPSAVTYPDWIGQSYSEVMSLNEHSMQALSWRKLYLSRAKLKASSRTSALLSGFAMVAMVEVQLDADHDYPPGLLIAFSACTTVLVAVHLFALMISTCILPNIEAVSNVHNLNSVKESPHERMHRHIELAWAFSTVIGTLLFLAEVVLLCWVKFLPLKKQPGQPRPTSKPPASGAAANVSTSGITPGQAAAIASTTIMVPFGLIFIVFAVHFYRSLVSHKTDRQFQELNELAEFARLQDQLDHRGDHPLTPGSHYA
UniProt Q8N4S7: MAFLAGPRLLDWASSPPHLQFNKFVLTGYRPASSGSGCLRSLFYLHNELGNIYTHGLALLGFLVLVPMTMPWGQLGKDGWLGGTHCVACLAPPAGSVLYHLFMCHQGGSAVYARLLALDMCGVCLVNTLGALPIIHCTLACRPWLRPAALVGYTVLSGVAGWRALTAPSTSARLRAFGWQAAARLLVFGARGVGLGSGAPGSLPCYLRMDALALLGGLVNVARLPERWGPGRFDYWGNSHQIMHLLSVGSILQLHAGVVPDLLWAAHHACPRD
UniProt Q8TEW8: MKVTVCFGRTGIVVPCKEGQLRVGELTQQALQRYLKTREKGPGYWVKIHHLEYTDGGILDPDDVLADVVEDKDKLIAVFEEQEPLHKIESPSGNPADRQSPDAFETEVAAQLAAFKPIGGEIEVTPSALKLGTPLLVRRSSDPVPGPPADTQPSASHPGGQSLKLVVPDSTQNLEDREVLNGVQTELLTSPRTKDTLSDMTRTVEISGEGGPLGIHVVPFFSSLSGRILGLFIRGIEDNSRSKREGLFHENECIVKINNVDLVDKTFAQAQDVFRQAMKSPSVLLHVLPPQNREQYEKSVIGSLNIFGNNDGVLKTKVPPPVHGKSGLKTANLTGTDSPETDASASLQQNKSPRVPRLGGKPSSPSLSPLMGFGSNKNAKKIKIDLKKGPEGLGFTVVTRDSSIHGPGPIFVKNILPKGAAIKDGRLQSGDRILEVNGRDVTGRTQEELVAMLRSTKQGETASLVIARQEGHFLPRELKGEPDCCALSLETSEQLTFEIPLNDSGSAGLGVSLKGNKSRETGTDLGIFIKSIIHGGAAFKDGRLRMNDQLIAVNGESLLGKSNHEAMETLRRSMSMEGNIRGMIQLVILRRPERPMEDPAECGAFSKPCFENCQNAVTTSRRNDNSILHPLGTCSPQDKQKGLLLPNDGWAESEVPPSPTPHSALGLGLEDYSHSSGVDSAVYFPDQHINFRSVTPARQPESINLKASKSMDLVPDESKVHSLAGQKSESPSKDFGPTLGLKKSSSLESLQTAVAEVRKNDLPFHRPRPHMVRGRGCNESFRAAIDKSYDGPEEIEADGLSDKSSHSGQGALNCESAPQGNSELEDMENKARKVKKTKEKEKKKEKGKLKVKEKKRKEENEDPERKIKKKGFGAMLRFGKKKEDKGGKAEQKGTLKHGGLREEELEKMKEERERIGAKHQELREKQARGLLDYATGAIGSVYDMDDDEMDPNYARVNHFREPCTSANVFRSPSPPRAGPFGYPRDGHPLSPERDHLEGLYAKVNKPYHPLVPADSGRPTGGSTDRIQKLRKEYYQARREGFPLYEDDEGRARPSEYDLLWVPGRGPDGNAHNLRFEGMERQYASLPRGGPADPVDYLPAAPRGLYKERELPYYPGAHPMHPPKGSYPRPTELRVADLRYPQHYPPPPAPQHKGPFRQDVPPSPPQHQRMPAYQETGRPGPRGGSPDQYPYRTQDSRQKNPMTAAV
UniProt Q86UD1: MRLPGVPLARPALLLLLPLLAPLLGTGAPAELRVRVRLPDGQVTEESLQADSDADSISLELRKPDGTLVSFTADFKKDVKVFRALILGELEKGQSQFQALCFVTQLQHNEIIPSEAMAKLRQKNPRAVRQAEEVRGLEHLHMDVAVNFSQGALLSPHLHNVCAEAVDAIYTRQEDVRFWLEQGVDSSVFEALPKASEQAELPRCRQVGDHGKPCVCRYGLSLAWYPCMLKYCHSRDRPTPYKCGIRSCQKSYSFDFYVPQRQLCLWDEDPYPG
UniProt Q9BZ23: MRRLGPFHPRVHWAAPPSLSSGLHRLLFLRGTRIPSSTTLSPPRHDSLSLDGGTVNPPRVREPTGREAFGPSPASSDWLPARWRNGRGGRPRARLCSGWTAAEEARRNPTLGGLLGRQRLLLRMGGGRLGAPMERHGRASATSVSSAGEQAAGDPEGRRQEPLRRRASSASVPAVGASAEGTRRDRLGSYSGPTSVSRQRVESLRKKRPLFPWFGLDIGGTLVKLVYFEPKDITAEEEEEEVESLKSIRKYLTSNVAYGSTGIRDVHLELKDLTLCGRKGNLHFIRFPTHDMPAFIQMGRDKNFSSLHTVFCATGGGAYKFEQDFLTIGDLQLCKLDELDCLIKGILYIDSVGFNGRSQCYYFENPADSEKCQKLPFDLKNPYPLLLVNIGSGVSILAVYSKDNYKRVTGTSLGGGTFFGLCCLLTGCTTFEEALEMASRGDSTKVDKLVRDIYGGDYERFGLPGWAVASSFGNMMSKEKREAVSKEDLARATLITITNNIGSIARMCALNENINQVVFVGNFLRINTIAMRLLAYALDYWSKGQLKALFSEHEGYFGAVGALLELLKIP
UniProt O75665: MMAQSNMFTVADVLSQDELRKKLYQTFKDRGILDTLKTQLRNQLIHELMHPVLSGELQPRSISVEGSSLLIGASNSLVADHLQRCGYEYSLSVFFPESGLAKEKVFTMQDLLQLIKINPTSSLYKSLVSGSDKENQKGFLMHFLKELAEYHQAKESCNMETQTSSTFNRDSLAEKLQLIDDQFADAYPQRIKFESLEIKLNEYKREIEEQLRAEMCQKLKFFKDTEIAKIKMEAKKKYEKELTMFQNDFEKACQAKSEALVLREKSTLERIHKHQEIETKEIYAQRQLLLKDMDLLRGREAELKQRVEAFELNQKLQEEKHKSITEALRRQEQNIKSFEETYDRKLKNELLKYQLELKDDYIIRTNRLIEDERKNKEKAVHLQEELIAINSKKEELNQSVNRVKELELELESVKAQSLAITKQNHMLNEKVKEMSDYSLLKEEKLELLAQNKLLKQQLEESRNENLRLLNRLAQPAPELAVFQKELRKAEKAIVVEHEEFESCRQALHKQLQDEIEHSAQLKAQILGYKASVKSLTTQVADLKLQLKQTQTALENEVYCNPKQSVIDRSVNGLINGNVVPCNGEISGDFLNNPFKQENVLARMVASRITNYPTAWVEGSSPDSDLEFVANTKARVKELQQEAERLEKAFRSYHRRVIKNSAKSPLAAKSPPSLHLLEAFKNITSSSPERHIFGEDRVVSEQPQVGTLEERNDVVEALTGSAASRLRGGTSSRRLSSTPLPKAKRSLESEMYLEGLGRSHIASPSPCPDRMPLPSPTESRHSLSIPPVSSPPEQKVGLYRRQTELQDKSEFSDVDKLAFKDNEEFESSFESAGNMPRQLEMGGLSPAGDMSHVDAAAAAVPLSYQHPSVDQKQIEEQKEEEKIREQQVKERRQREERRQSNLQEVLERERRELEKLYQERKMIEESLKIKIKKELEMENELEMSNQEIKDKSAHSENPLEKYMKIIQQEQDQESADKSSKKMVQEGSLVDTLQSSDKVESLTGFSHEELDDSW
UniProt O95340: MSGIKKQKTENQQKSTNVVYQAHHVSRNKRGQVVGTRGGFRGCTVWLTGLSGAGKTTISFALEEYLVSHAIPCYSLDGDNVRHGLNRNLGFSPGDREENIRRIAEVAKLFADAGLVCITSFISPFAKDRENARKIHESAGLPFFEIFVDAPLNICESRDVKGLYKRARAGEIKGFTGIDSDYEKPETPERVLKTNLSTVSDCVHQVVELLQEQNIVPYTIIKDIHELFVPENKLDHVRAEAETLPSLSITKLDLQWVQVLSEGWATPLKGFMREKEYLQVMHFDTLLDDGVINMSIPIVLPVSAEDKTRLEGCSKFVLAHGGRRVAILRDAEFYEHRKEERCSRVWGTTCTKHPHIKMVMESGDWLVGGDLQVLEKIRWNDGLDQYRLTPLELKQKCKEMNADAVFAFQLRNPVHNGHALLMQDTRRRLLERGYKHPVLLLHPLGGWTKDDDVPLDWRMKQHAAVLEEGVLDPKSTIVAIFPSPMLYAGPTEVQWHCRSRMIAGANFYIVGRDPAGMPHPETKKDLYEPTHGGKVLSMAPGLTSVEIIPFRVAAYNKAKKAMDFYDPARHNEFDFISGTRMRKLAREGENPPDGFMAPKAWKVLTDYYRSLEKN

log2 fold change, inactive:
NUP214, A0A494C1F2 0.04
OBSCN isoform 6 (UniProt Q5VST9) -0.016
P2RY1 (UniProt P47900) -0.014
OSBPL9 (UniProt E9PLH0) -0.021
PACS2 isoform 2 (UniProt Q86VP3) -0.043
OS9 isoform 7 (UniProt Q13438) 0.024
OAS3 (UniProt Q9Y6K5) -0.19
NUP214 isoform 4 (UniProt P35658) 0.212
PAQR7 (UniProt Q86WK9) 0.02
PALM isoform 2 (UniProt O75781) 0.006
OGG1 isoform 4 (UniProt O15527) 0.246
PABPC1 (UniProt H0YAR2) -0.008
PAGE4 (UniProt O60829) -0.423
OSBPL1A (UniProt Q9BXW6) 0.235
ORAI1 (UniProt Q96D31) 0.057
PAQR4 (UniProt Q8N4S7) 0.138
PARD3B (UniProt Q8TEW8) 0.025
OAF (UniProt Q86UD1) 0.174

Compound: C/C(=N\NC(=O)C1=CC(=CC=C1)S(=O)(=O)N2CCOCC2)/C3=C(C=CC(=C3)Cl)O
Test: as above
In short: as §1

log2 fold change, inactive:
OSGEPL1 (UniProt Q9H4B0) -0.169
PANK2 (UniProt Q9BZ23) -0.012
NUP35 (UniProt Q8NFH5) 0.203
OFD1 (UniProt O75665) 0.012
PAPSS2 isoform 2 (UniProt O95340) 0.113
OCIAD1 (UniProt D6RDK6) -0.087

A section of the results above:
log2 fold change, inactive:
PAPSS2 isoform 2 (UniProt O95340) 0.113
OCIAD1 (UniProt D6RDK6) -0.087

Compound: C1=CC(=CC=C1C2=NC3=C(N2)C=C(C=C3)C(=O)N)OC4=CC=C(C=C4)Cl
Test: as above
In short: as §1

log2 fold change, inactive:
NUP214, A0A494C1F2 0.057
OBSCN isoform 6 (UniProt Q5VST9) -0.091
P2RY1 (UniProt P47900) -0.07
OSBPL9 (UniProt E9PLH0) 0.215
PACS2 isoform 2 (UniProt Q86VP3) -0.012
OS9 isoform 7 (UniProt Q13438) -0.176
OAS3 (UniProt Q9Y6K5) -0.031
NUP214 isoform 4 (UniProt P35658) 0.239
PAQR7 (UniProt Q86WK9) 0.184
PALM isoform 2 (UniProt O75781) 0.09
OGG1 isoform 4 (UniProt O15527) -0.073
PABPC1 (UniProt H0YAR2) 0.065
PAGE4 (UniProt O60829) 0.098
OSBPL1A (UniProt Q9BXW6) 0.205
ORAI1 (UniProt Q96D31) 0.159
PAQR4 (UniProt Q8N4S7) -0.003
PARD3B (UniProt Q8TEW8) -0.084
OAF (UniProt Q86UD1) -0.092

— the supplement of paper PMC10849652
